Reference: publication doi:10.1101/2020.05.08.084814
These are yes or no findings as the source states them, for the method shown. In cells and extracts the contact can be indirect. A yes stands for co-enrichment or nearness to the bait. Other partners may have been found.

The chains behind the UniProt entries cited, without tags or fusion partners.
UniProt Q1JQ73: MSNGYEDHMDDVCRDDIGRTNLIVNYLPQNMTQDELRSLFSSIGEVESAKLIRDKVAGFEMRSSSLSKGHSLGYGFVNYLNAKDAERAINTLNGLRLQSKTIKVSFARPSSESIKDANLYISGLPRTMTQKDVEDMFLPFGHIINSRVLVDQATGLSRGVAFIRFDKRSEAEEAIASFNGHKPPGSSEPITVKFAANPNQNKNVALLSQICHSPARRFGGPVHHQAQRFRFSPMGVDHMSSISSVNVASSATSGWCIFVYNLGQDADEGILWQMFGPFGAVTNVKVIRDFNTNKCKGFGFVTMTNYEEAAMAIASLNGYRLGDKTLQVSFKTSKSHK
UniProt Q91903: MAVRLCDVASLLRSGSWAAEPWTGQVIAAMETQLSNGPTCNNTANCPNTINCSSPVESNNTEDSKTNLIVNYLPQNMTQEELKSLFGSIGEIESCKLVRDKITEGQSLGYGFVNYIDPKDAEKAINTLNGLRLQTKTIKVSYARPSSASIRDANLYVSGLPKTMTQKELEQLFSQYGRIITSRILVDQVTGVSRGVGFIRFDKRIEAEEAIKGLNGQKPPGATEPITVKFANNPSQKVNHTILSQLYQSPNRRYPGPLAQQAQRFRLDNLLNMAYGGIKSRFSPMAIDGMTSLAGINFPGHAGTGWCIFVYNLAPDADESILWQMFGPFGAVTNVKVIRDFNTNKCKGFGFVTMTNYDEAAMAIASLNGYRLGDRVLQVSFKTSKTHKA
UniProt Q91572: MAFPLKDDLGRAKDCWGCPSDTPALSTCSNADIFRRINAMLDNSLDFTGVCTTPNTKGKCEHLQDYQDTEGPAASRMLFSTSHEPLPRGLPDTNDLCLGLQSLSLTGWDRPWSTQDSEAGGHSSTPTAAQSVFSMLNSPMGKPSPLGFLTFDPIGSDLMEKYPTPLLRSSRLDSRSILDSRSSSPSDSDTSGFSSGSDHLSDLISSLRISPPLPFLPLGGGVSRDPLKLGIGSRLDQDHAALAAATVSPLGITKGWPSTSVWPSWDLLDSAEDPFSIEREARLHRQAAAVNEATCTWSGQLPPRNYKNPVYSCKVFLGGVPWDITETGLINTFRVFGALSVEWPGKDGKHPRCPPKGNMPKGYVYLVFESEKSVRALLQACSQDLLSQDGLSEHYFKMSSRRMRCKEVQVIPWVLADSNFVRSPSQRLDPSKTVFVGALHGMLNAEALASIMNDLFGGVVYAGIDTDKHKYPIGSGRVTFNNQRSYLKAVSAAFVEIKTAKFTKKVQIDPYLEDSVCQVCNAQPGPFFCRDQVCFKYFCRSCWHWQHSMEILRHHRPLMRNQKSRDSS

Experiments:
[1] = target: T1, Stau1 (Staufen1) (Xenopus laevis (endogenous in oocytes)) (UniProt Q6GM35); test: affinity purification with mass spectrometry
T1 sequence: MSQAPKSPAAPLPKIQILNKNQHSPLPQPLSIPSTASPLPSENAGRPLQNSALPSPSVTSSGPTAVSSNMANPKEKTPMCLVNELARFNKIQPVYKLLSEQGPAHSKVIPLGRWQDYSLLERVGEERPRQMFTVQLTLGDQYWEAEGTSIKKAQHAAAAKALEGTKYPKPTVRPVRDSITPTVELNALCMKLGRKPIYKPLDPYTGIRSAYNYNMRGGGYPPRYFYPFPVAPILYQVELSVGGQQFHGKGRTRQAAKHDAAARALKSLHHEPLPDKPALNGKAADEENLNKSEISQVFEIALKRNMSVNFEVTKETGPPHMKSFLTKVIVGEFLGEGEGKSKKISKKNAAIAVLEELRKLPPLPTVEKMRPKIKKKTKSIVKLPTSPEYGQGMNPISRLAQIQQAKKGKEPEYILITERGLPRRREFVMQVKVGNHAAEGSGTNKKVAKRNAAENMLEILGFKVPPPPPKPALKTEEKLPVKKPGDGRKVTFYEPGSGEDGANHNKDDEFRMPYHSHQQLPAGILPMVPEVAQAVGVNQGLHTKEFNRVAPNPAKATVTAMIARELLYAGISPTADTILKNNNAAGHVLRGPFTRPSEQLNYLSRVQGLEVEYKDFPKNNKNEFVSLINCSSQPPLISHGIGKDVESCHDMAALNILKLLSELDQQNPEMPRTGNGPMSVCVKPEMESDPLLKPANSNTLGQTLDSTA

[2] = target: T2, hnRNPAB (40LoVE) (Xenopus laevis (endogenous in oocytes)); test: affinity purification with mass spectrometry
T2 sequence: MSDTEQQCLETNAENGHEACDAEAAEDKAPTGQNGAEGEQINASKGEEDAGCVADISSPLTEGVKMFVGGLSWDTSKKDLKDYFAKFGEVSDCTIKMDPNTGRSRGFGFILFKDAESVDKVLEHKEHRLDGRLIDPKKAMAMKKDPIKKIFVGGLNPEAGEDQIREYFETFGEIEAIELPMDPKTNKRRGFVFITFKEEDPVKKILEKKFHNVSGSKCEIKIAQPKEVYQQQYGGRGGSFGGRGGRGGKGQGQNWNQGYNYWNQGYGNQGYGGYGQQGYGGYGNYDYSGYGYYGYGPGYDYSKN

How did the binding [1] turn out when “Lsm14B (Xenopus laevis (endogenous in oocytes))” was run?
The binding was “binds”.

What about the binding [2] of the same substance?
Its binding is “binds”.

For “Padi2 (Xenopus laevis (endogenous in oocytes))”, which binding [1] is on record?
The binding was “binds”.

And the binding [2]?
Its binding is “binds”.

With “Tia1 (Xenopus laevis (endogenous in oocytes))” as the substance, how does the binding [1] read?
Its binding is “binds”.

And the binding [2]?
Its binding is “binds”.

“Dynll1 (Xenopus laevis (endogenous in oocytes))” was tested. Which binding [1] did it give?
The binding was “binds”.

And the binding [2]?
The binding was “binds”.

Which results are given for “Pabp (Xenopus laevis (endogenous in oocytes))”?
binding [1]: binds; binding [2]: binds

What does the source list for Elavl1 (from UniProt Q1JQ73 1-337)?
binding [1]: binds; binding [2]: binds

What does the source list for “Stau2 (Xenopus laevis (endogenous in oocytes))”?
binding [1]: binds; binding [2]: binds

How did the binding [1] turn out when “Vera (Igf2bp3) (Xenopus laevis (endogenous in oocytes))” was run?
Its binding is “binds”.

And the binding [2]?
Its binding is “binds”.

Which results are given for Elavl2 (from UniProt Q91903 1-389)?
binding [1]: binds; binding [2]: binds

For “Kif3b (Xenopus laevis (endogenous in oocytes))”, which binding [1] is on record?
The binding was “binds”.

What about the binding [2] of the same substance?
Its binding is “binds”.

What does the source list for “C14orf166 (Xenopus laevis (endogenous in oocytes))”?
binding [1]: binds; binding [2]: binds

Which binding [1] does the source give for “Lsm2 (Xenopus laevis (endogenous in oocytes))” here?
Its binding is “binds”.

And the binding [2]?
Its binding is “binds”.

For “Ddx3 (Xenopus laevis (endogenous in oocytes))”, which binding [1] is on record?
The binding was “binds”.

And the binding [2]?
Its binding is “binds”.

With “PTB (Ptbp1) (Xenopus laevis (endogenous in oocytes))” as the substance, how does the binding [1] read?
Its binding is “binds”.

What about the binding [2] of the same substance?
The binding was “binds”.

Which results are given for “Fam98B (Xenopus laevis (endogenous in oocytes))”?
binding [1]: binds; binding [2]: binds

Which binding [1] does the source give for “Lsm14A (Xenopus laevis (endogenous in oocytes))” here?
Its binding is “binds”.

And the binding [2]?
The binding was “binds”.

How did the binding [1] turn out when “Ybx2 (Xenopus laevis (endogenous in oocytes))” was run?
The binding was “binds”.

What about the binding [2] of the same substance?
The binding was “binds”.

Which results are given for “G3bp2 (Xenopus laevis (endogenous in oocytes))”?
binding [1]: binds; binding [2]: binds

With Cpeb1 (from UniProt Q91572 1-568) as the substance, how does the binding [1] read?
The binding was “binds”.

What about the binding [2] of the same substance?
The binding was “binds”.
